Data published in PubChem BioAssay AID540256 (National Center for Advancing Translational Sciences (NCATS), 2011).
Among all 300,000 compounds or so, about 3,700 (1.2%) were called active. Inconclusive means that the source gave no clear call. Such entries were picked first, then a sample of the others. Calls come from the whole dose curve; tested in HEK293 cells. Where the call is inconclusive, the potency comes from a doubtful curve fit.
% is set by controls: 0 for no effect and ±100 for the full control effect; potency is the fitted concentration of half-maximal effect.

Test: qHTS for Inhibitors of binding or entry into cells for Lassa Virus; note: nearly all actives have a fitted effect of over 50% in size
Conditions: Lassa virus pseudotype entry inhibition, cell reporter; activity change, negative = inhibition: at 37.9 µM (top of the series) unless noted
In the case of `CCS(=O)(=O)Nc1cc(-c2cn3ccc(C)cc3n2)ccc1C`, the Potency is reported as inconclusive: 3.98 µM [activator, single point]. In the case of `Cc1ccc(-c2nnn(CC(=O)N(c3cnc4ccccc4c3)C(C(=O)NC3CCCC3)c3ccncc3)n2)o1` (stereo unspecified), the Potency is reported as inconclusive: 35.5 µM [inhibitor, single point]. In the case of `C=CCCC(=O)Nc1ccc(Br)cn1`, the Potency is reported as inconclusive: 1 µM [inhibitor, full curve, poor fit]. For `Cn1c(SCC(=O)c2ccc3c(c2)NC(=O)CO3)nc2ccccc21`, the “activity change, negative = inhibition” value was inactive: 2.65% [at 46.1 µM]. For `CCN1C(=O)c2cccc3c(S(=O)(=O)Nc4ccc(O)c(C(=O)O)c4)ccc1c23`, the Potency was inconclusive: 10 µM [activator, partial curve]. With `O=C(OCC(=O)N1CCc2ccccc21)c1c2c(nc3ccccc13)CCCC2` the Potency was inconclusive: 20 µM [inhibitor, partial curve, poor fit]. In the case of `O=C(O)c1cc(Cl)ccc1OS(=O)(=O)c1ccc(Cl)s1`, the Potency is reported as inconclusive: 14.1 µM [activator, partial curve, poor fit]. With `COC(=O)c1cc(C#N)c(SCc2ccccc2)nc1C` the Potency was inconclusive: 0.199 µM [inhibitor, full curve, poor fit]. With `CCC(O)(CC)C(=O)NN(C(=O)CCl)c1ccccc1` the “activity change, negative = inhibition” value was inactive: -27.3%. For `COc1ccc(/C=C/c2nc(N)nc(-c3ccccc3O)n2)cc1OC`, the Potency was inconclusive: 15.8 µM [inhibitor, single point]. In the case of `O=c1c(Cl)c(N2CCCCC2)cnn1-c1nc2ccccc2[nH]1`, the Potency is reported as inconclusive: 5.8 µM [inhibitor, full curve, poor fit]. For `Cc1cc(NC(c2nnc(-c3ccccc3)o2)c2ccccc2F)ccc1Br` (stereo unspecified), the Potency was inconclusive: 3.55 µM [inhibitor, full curve, poor fit]. With `CCc1cccc2sc(N3CCN(C(=O)C4CC4)CC3)nc12` the Potency was inconclusive: 35.5 µM [inhibitor, single point]. In the case of `COc1ccc(NCc2ccccc2-c2nnc(-c3ccccc3)o2)cc1Cl`, the “activity change, negative = inhibition” value is reported as inactive: 6.61% [at 46.1 µM]. In the case of `O=C(N/N=C/c1cccs1)C1COc2ccccc2O1` (stereo unspecified), the Potency is reported as inconclusive: 11.6 µM [inhibitor, partial curve, poor fit]. With `O=C(O)CC12CC3CC(C1)CC(n1cncn1)(C3)C2` the “activity change, negative = inhibition” value was inactive: -1.2%. With `Cc1c(C(=O)N(C)Cc2ccccc2)oc2ccc(S(=O)(=O)N3CCCC3)cc12` the Potency was inconclusive: 20.6 µM [inhibitor, partial curve]. In the case of `CC1Oc2ccccc2N(CC(=O)Nc2ccc3c(c2)OCCO3)C1=O` (stereo unspecified), the “activity change, negative = inhibition” value is reported as inactive: 24.6%. With `CCOC(=O)c1c(C)c(C(=O)NCc2ccc(OC)cc2)c(C)n1C` the Potency was inconclusive: 20 µM [inhibitor, single point]. For `Cc1cnc(CNC(=O)c2ccc(OC3CCN(C(=O)C4CC4)CC3)cc2)cn1`, the “activity change, negative = inhibition” value was inactive: 21.9% [at 46.1 µM]. In the case of `Cc1ccc(NCc2ccc(O)c3ncccc23)cc1`, the Potency is reported as inconclusive: 8.91 µM [inhibitor, partial curve, poor fit]. With `NNC(=S)Nc1c(F)cc(F)cc1Br` the Potency was inconclusive: 7.08 µM [inhibitor, full curve, poor fit]. In the case of `COc1cc2cc(-c3ccc(O)cc3O)nc(C)c2cc1OC`, the Potency is reported as inconclusive: 1 µM [inhibitor, partial curve, poor fit]. For `Cc1ccc(C(=O)N2N=C(c3ccccc3O)CC2c2ccccc2)cc1` (stereo unspecified), the “activity change, negative = inhibition” value was inactive: 6.07% [at 46.1 µM]. For `COC(=O)c1sccc1S(=O)(=O)N(CC(=O)NCc1ccccc1)c1ccccc1`, the “activity change, negative = inhibition” value was inactive: -21.1% [at 46.1 µM]. With `COc1ccc(C(=O)c2ccc(Br)cc2)cc1` the Potency was inconclusive: 0.461 µM [activator, partial curve, poor fit]. In the case of `CCOC(=O)C1(CCCc2ccccc2)CCN(C(=O)CCc2cnn(C)c2)CC1`, the Potency is reported as inconclusive: 10 µM [inhibitor, partial curve, poor fit]. With `Cc1cccc(C(C)C)c1NC(=O)C(C)OC(=O)Cn1cnc2c1c(=O)n(C)c(=O)n2C` (stereo unspecified) the “activity change, negative = inhibition” value was inactive: 9.86% [at 46.1 µM]. With `CN(CCNC(=O)C1CCC(=O)N(Cc2ccc(Cl)cc2)C1)CCc1ccccc1` (stereo unspecified) the “activity change, negative = inhibition” value was inactive: 20.1%. With `Cc1ccc(CNC(=O)C(=O)NCC(c2cccs2)S(=O)(=O)c2ccc(C)cc2)cc1` (stereo unspecified) the Potency was inconclusive: 12.6 µM [inhibitor, partial curve, poor fit]. With `Cc1ccc(C2C3=C(CC(C)(C)CC3=O)OC3=C2C(=O)CC(C)(C)C3)cc1` the Potency was inconclusive: 17.8 µM [inhibitor, single point]. With `COc1ccc2[nH]cc(CCNC(=O)C3CCCCC3)c2c1` the Potency was inconclusive: 22.4 µM [activator, partial curve, poor fit]. With `Cc1ccc2c(c1)c1c3n2CCN(CC(O)CNC(C)C)C3CCC1` (stereo unspecified) the Potency was inconclusive: 35.5 µM [inhibitor, single point]. For `CCCCCOCC(O)CCC(=O)NN` (stereo unspecified), the “activity change, negative = inhibition” value was inactive: -5.15%. In the case of `COc1ccc(C(=O)NC2CC(C)(C)Cc3c2cnn3-c2ccccc2C)o1` (stereo unspecified), the Potency is reported as inconclusive: 12.6 µM [inhibitor, partial curve, poor fit]. In the case of `COc1cccc(C(=O)C2CCCN(CC3=Cc4cc(OC)ccc4OC3)C2)c1` (stereo unspecified), the Potency is reported as inconclusive: 20 µM [inhibitor, single point]. For `Cc1ccc(-c2sc(C(=O)Nc3ccc(Br)cc3)cc2CC(=O)O)cc1`, the “activity change, negative = inhibition” value was inactive: 27.2% [at 46.1 µM]. In the case of `CCCOc1ccccc1C1NC(=O)NC(C)=C1C(=O)OCc1ccccc1` (stereo unspecified), the “activity change, negative = inhibition” value is reported as inactive: -15%. In the case of `Cc1ccc2c(c1)c1c(n2C)C(C(N)=O)CCC1` (stereo unspecified), the “activity change, negative = inhibition” value is reported as inactive: -3.05%. With `CC(=O)c1ccc(OCC(=O)Nc2ccc3nc(C)sc3c2)cc1` the “activity change, negative = inhibition” value was inactive: -19.5%. With `CCOC(=O)C(CCCOc1cccc(CC)c1)C(=O)OCC` the Potency was inconclusive: 10 µM [inhibitor, partial curve]. With `CCn1c(=O)c2cc(C(=O)N(CCCOC(C)C)Cc3ccco3)sc2c2ccccc21` the “activity change, negative = inhibition” value was inactive: -25.2% [at 46.1 µM]. With `CCN(CC)C(=O)C(=O)c1cn(CC(=O)NCC2CCCO2)c2ccccc12` (stereo unspecified) the Potency was inconclusive: 1.26 µM [inhibitor, single point]. In the case of `O=C(NCc1cccnc1)C(=O)Nc1nc2ccccc2s1`, the “activity change, negative = inhibition” value is reported as inactive: -2.9%. With `O=C(CCc1ccccc1)NC(=S)NCc1ccco1` the Potency was inconclusive: 14.1 µM [inhibitor, partial curve, poor fit]. For `COCCn1c(SCC(=O)/C=C2\N(C)c3ccccc3C2(C)C)nnc1-c1ccncc1`, the Potency was inconclusive: 0.0731 µM [inhibitor, full curve, poor fit].
